In the supplement of paper PMC10849652:
This is one part of the list.

Amino acid sequences for entries named in this document (tags omitted). A change or cut given only in a name is not applied to a line headed by its entry.
UniProt P31146: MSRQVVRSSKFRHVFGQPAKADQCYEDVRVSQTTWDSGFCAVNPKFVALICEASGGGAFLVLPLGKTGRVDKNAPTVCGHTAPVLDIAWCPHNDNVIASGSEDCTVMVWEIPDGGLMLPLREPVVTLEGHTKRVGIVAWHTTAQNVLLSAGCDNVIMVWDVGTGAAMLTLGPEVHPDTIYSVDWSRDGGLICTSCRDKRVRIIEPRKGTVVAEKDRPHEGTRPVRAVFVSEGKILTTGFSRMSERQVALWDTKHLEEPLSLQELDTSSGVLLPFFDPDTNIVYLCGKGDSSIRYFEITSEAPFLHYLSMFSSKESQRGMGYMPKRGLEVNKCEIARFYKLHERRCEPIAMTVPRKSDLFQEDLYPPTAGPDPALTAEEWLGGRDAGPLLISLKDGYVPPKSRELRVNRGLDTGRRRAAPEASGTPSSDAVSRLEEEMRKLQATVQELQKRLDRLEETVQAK
UniProt Q9GZY4: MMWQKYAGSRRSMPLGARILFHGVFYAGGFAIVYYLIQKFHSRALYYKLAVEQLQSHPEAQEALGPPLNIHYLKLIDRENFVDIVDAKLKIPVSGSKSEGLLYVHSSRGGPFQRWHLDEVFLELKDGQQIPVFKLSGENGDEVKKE
UniProt Q8N684: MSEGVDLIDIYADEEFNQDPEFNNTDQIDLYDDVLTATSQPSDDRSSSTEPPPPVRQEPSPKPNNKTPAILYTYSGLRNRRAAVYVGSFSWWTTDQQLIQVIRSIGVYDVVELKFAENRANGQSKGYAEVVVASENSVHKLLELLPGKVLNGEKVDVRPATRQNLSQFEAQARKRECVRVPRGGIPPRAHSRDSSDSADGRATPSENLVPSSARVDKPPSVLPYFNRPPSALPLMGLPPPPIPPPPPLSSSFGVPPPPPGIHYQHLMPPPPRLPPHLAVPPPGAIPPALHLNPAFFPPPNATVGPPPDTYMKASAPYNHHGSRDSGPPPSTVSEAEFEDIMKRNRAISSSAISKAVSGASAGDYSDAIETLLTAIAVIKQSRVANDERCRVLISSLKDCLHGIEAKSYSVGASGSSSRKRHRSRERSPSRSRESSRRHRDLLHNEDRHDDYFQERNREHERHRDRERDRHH
UniProt P53618: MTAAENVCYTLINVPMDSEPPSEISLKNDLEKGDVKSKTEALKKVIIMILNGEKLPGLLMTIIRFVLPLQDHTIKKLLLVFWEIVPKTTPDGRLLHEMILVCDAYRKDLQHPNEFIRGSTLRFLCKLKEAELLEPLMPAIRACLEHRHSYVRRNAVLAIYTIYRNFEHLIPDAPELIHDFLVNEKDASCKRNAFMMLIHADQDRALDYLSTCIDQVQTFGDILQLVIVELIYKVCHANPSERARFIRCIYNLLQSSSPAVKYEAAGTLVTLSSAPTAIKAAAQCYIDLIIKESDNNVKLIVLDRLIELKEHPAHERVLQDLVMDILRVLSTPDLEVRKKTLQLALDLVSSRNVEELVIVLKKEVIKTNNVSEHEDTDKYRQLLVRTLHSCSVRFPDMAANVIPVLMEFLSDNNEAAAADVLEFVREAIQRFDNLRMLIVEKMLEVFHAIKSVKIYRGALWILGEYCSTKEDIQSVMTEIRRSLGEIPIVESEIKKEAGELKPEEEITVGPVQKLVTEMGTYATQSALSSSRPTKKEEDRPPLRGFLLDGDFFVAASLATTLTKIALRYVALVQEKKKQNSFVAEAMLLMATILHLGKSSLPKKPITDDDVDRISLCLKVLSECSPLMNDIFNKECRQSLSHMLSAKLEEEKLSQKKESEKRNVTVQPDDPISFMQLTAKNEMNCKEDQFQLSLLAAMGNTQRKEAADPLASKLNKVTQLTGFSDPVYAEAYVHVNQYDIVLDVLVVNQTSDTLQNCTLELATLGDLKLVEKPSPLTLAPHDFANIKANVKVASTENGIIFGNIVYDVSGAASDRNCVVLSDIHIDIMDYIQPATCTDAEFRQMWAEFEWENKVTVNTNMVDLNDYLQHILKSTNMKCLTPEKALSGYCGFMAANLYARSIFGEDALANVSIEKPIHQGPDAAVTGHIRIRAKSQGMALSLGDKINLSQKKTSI
UniProt Q9UFF9, whole entry, looked up: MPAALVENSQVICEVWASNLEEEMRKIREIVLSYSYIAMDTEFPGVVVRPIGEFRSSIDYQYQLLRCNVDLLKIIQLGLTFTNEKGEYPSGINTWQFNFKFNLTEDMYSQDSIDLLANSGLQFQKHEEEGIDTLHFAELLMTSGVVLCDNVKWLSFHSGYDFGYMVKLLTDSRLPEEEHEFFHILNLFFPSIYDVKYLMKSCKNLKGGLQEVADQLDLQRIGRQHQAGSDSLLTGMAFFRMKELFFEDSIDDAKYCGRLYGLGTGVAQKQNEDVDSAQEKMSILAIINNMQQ
UniProt Q99829: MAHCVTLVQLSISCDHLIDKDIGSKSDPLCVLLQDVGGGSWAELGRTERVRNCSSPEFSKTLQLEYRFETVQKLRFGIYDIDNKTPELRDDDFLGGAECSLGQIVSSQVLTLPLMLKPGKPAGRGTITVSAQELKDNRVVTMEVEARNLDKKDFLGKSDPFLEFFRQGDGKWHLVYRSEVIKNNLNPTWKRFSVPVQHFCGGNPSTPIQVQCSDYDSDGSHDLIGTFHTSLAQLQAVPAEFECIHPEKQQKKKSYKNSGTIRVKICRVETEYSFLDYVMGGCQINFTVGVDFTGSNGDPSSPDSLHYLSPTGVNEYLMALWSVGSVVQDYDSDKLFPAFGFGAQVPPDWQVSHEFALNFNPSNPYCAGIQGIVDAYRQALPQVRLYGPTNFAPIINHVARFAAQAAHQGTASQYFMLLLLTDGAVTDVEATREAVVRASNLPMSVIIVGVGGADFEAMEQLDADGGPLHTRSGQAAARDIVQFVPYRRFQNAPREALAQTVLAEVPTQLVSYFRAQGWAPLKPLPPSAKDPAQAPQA
UniProt Q5JTJ3: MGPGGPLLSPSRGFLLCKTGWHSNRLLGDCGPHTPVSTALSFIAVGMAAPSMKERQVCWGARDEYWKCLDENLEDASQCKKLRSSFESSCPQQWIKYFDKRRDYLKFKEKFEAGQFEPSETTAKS
UniProt Q8N129: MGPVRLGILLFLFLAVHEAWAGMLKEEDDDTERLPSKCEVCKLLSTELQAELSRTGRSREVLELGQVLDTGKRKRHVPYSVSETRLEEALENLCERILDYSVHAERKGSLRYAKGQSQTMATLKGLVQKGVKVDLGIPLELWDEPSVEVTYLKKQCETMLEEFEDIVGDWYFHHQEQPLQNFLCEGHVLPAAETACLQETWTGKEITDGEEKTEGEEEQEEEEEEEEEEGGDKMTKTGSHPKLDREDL
UniProt Q9NX08, whole entry, looked up: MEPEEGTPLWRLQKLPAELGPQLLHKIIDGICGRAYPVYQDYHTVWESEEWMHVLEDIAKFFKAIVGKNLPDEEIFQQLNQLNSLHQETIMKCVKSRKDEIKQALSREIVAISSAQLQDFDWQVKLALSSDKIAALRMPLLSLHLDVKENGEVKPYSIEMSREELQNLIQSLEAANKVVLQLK
UniProt P83436: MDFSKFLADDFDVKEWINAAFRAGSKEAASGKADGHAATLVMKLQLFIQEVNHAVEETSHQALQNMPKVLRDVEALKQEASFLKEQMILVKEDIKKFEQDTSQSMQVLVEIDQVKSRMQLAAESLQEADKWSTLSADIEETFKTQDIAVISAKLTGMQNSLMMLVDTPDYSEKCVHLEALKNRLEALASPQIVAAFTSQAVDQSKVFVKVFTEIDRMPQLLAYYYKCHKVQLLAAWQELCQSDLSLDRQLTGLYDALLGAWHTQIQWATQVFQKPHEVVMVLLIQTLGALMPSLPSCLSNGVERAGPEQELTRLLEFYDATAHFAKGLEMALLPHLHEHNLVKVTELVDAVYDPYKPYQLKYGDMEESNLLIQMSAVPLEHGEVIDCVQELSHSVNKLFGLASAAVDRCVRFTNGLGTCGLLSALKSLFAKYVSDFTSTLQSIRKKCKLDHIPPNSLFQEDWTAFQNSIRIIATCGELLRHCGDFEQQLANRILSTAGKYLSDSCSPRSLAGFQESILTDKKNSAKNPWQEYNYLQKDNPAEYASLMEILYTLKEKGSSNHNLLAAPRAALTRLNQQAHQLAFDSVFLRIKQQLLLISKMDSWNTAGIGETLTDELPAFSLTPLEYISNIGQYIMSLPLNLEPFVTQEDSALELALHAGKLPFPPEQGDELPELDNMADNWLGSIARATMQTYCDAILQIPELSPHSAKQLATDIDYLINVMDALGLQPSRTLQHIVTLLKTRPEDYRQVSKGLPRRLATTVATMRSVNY
UniProt Q9ULV4, whole entry, looked up: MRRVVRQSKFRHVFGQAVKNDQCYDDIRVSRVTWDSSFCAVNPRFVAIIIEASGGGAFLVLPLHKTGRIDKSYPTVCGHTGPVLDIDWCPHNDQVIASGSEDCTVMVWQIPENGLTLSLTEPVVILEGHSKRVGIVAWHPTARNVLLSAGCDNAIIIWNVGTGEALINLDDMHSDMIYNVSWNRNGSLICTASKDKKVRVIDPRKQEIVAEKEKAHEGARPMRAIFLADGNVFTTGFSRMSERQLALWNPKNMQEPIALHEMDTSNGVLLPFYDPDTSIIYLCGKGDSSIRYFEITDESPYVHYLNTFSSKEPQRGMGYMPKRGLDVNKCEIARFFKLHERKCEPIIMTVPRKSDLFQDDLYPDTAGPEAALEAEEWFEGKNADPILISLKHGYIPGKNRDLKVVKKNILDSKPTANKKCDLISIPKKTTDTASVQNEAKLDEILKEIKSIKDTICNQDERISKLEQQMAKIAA
UniProt P61201: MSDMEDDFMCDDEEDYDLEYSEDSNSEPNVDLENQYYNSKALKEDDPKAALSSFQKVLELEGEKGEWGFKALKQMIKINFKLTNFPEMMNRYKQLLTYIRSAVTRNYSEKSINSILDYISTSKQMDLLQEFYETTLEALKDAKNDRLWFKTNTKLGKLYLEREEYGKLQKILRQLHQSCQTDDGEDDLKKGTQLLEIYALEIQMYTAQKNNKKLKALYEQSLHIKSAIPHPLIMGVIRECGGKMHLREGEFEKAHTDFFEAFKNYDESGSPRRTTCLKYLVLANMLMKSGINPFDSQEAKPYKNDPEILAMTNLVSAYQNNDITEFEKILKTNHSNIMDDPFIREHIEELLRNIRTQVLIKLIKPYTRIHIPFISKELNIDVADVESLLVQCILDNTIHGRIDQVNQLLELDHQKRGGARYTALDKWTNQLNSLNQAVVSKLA
UniProt P09543: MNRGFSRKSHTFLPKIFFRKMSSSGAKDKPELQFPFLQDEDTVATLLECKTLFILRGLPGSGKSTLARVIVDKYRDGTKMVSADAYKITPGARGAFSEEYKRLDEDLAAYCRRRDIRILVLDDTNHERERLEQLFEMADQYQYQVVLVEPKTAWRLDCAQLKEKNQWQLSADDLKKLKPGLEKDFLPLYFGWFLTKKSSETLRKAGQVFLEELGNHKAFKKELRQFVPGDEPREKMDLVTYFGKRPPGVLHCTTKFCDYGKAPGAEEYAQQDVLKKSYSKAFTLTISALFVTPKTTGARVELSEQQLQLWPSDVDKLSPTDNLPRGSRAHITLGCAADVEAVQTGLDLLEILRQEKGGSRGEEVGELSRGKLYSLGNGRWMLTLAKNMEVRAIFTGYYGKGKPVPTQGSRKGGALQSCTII
UniProt Q5RI15: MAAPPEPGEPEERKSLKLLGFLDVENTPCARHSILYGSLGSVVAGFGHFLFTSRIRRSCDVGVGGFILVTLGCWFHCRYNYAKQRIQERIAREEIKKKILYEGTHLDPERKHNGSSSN
UniProt P51911: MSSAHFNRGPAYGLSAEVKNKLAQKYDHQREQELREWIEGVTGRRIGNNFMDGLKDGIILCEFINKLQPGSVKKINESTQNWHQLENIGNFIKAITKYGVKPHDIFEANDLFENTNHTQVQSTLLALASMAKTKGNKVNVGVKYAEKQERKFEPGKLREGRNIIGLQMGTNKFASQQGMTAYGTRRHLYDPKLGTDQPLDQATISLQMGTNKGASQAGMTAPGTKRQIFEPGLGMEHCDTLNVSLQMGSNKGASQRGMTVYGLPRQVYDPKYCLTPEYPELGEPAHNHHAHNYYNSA
UniProt Q99627: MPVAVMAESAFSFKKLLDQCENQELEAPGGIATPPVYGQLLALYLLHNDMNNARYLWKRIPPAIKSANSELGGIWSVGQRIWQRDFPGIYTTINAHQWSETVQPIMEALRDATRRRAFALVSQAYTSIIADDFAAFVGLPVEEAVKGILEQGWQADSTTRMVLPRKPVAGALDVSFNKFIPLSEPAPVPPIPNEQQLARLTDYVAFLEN
UniProt Q9BT09: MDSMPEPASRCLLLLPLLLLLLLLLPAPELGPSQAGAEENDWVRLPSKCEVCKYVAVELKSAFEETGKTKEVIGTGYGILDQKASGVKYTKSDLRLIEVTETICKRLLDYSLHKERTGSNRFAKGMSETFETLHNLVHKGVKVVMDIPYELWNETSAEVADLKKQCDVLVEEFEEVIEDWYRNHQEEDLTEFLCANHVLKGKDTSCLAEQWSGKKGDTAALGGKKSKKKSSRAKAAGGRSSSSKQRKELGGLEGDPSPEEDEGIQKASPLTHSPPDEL
UniProt P10606, whole entry, looked up: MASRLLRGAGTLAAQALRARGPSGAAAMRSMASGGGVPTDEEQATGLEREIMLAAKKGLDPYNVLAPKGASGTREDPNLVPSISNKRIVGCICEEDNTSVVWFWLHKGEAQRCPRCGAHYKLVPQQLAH

compound: Cc1nc(Nc2ncc(C(=O)Nc3c(C)cccc3Cl)s2)cc(N2CCN(CCO)CC2)n1 [dasatinib]; test: log2 fold change, soluble protein after heating vs DMSO (PISA); higher = thermal stabilisation; K562 lysate, 10 uM; active = over 0.2 and 3.5 SD of the protein, either way, in both replicates (recomputed)
How it was run: (§1)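 Thermal stability, expressed as log-two fold change relative to solvent controls, is given from duplicates. Crude K562 extract in PBS pH 7.4 with 1 mM MgCl2, at 1 mg/mL protein, was treated with 10 μM compound for 30 min and heated in aliquots for 3 min across 48°C-58°C. After pooling, adjustment to 0.5% NP-40 at 4°C and centrifugation at 21,000xg for 90 min, supernatant protein was measured by TMTpro 16plex LC-MS/MS with channel sums equalised.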

log2 fold change, inactive:
COMMD6 isoform 2 (UniProt Q7Z4G1) 0.036
COL6A5 (UniProt A8TX70) -0.11
COIL (UniProt P38432) 0.067
CORO1A (UniProt P31146) -0.146
COA1 (UniProt Q9GZY4) -0.002
CPSF7 isoform 3 (UniProt Q8N684) -0.056
CRABP2 (UniProt P29373) 0.076
CPQ (UniProt Q9Y646) 0.001
COMMD7 (UniProt Q86VX2) -0.006
COPB1 (UniProt P53618) 0.01
CNOT8 (UniProt Q9UFF9) -0.189
CPVL (UniProt Q9H3G5) -0.277
COA3 (UniProt Q9Y2R0) 0.015
CPNE1 (UniProt Q99829) 0.006
COA6 isoform 2 (UniProt Q5JTJ3) -0.03
CNPY4 (UniProt Q8N129) 0.144
COPZ1 isoform 4 (UniProt P61923) 0.015
CNOT4 isoform 6 (UniProt O95628) 0.034
CNNM3 (UniProt Q8NE01) -0.001
COMMD8 (UniProt Q9NX08) -0.109
COPA isoform 2 (UniProt P53621) -0.023
CPNE7 (UniProt Q9UBL6) 0.022
CPNE3 (UniProt O75131) -0.052
CNOT9 (UniProt Q92600) -0.023
COG7 (UniProt P83436) -0.089
CORO1C isoform 3 (UniProt Q9ULV4) 0.019
CPED1 (UniProt A4D0V7) -0.164
COPS2 isoform 2 (UniProt P61201) -0.025
CNP (UniProt P09543) -0.047
CPSF2 (UniProt Q9P2I0) -0.02
COQ8A (UniProt Q8NI60) 0.394
COX20 isoform 2 (UniProt Q5RI15) 0.07
CNN1 (UniProt P51911) 0.006
CNOT11 (UniProt Q9UKZ1) -0.052
COPS8 (UniProt Q99627) 0.001
COX6C (UniProt P09669) -0.007
CNPY3 (UniProt Q9BT09) 0.027
COX5B (UniProt P10606) 0.011
CPOX (UniProt P36551) 0.077
COPS5 (UniProt Q92905) 0.026

compound: Cc1ncc(-c2ccnc(Nc3ccc(S(C)(=O)=O)cc3)n2)n1C(C)C; test: as above
How it was run: as §1

log2 fold change, inactive:
COMMD6 isoform 2 (UniProt Q7Z4G1) -0.059
COL6A5 (UniProt A8TX70) -0.185
COIL (UniProt P38432) -0.107
CORO1A (UniProt P31146) 0.022
COA1 (UniProt Q9GZY4) -0.006
CPSF7 isoform 3 (UniProt Q8N684) -0.056
CRABP2 (UniProt P29373) -0.066
CPQ (UniProt Q9Y646) -0.013
COMMD7 (UniProt Q86VX2) 0.019
COPB1 (UniProt P53618) -0.003
CNOT8 (UniProt Q9UFF9) 0.002
CPVL (UniProt Q9H3G5) -0.015
COA3 (UniProt Q9Y2R0) 0.007
CPNE1 (UniProt Q99829) 0.015
COA6 isoform 2 (UniProt Q5JTJ3) -0.21
CNPY4 (UniProt Q8N129) -0.131
COPZ1 isoform 4 (UniProt P61923) 0.088
CNOT4 isoform 6 (UniProt O95628) 0.057
CNNM3 (UniProt Q8NE01) -0.013
COMMD8 (UniProt Q9NX08) 0.079
COPA isoform 2 (UniProt P53621) -0.015
CPNE7 (UniProt Q9UBL6) 0.035
CPNE3 (UniProt O75131) -0.003
CNOT9 (UniProt Q92600) 0.016
COG7 (UniProt P83436) 0.011
CORO1C isoform 3 (UniProt Q9ULV4) -0.002
CPED1 (UniProt A4D0V7) -0.062
COPS2 isoform 2 (UniProt P61201) -0.005
CNP (UniProt P09543) -0.007
CPSF2 (UniProt Q9P2I0) 0.016
COQ8A (UniProt Q8NI60) -0.211
COX20 isoform 2 (UniProt Q5RI15) -0.024
CNN1 (UniProt P51911) 0.081
CNOT11 (UniProt Q9UKZ1) -0.017
COPS8 (UniProt Q99627) 0.004
COX6C (UniProt P09669) 0.012
CNPY3 (UniProt Q9BT09) -0.117
COX5B (UniProt P10606) 0.147
CPOX (UniProt P36551) -0.021
COPS5 (UniProt Q92905) -0.024
